Values of other authors, collected in patent US20170312254A1, “Low Dose Pharmaceutical Composition” (Cipla Limited, priority 2010, published 2017).
At least one read-out could not be matched to a standard name with certainty.

## O=C(O)c1ccc(-n2nc(-c3ccccc3O)nc2-c2ccccc2O)cc1 [Deferasirox, 4-[3,5-bis (2-hydroxyphenyl)-[1,2, 4]triazol-1-yl] enzoic acid]
  Permeability: good permeability
